{"source": "patent US20190274978A1", "about": "“ANTIBACTERIAL COMPOSITIONS” (priority 2016, published 2019)", "origin": "cited, not measured here", "tested_on": "M. tuberculosis", "conditions": "de Carvalho et al. (2011); cited from earlier work", "note": "At least one compound was matched to its structure with a doubt left.", "data": [{"smiles": "CO[C@H]1/C=C/O[C@@]2(C)Oc3c(C)c(O)c4c(O)c(c(/C=N/N5CCN(C)CC5)c(O)c4c3C2=O)NC(=O)/C(C)=C\\C=C\\[C@H](C)[C@H](O)[C@@H](C)[C@@H](O)[C@@H](C)[C@H](OC(C)=O)[C@@H]1C", "note": "[rifampicin]", "values": [{"measurement": "uncoupling of the membrane potential", "result": "did not"}]}]}
